The target in one assay is GlyA (E. coli) (UniProt P0A825). Kind of assay: split reporter.
The next assay concerns the target MetF (E. coli) (UniProt P0AEZ1). Kind of assay: split reporter.
In the next assay the target is T1, NudB (E. coli) (UniProt P0AFC0).
T1 sequence: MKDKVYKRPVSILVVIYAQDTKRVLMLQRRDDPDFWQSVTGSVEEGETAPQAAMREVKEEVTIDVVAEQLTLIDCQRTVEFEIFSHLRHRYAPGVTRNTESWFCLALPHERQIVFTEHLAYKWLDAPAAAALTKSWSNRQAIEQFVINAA
Briefly: split reporter.

Sequences of proteins named here, by UniProt entry; tags and fusion partners are left off.
UniProt P0A825: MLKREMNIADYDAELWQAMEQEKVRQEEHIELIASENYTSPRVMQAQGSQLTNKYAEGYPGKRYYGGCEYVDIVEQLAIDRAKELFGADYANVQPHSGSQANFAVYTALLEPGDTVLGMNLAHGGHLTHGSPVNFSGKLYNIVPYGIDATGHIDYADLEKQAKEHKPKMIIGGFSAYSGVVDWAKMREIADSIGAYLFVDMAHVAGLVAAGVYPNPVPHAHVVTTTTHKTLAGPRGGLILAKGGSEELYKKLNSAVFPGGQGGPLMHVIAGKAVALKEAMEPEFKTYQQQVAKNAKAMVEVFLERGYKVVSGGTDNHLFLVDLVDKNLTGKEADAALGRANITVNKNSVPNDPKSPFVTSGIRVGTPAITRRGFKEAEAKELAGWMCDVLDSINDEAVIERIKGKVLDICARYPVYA
UniProt P0AEZ1: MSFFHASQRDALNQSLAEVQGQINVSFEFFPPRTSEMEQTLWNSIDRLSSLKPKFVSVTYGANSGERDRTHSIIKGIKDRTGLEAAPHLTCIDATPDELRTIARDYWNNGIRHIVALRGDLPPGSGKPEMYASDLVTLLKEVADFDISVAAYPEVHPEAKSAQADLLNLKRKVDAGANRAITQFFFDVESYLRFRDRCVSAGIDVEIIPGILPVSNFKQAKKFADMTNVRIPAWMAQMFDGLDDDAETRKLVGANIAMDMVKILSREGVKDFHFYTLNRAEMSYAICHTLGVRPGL
UniProt P0ABQ4: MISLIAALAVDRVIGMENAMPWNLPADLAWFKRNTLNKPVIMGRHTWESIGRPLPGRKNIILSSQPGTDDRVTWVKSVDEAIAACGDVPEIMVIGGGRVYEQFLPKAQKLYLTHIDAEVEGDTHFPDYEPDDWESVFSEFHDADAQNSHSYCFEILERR
UniProt P69441: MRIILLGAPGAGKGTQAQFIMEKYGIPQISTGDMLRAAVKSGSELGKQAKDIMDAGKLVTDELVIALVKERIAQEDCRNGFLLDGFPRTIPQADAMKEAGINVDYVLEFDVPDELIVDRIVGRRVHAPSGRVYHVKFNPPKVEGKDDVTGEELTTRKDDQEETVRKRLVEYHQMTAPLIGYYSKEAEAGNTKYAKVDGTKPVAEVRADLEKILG

In a further assay the target is T2, PurK (E. coli) (UniProt P09029).
T2 sequence: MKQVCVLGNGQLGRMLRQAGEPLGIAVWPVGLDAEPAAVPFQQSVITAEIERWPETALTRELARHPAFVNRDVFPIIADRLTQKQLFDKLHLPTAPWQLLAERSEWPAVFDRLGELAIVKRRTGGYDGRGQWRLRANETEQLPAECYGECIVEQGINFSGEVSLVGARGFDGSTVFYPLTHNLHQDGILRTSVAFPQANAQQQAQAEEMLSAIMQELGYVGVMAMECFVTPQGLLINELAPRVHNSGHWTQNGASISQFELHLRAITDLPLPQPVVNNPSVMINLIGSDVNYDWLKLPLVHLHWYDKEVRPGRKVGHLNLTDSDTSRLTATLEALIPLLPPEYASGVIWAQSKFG
Kind of assay: split reporter.

Assay [1] has as its target T3, Thymidylate Kinase (Tmk) (E. coli) (UniProt P0A720).
T3 sequence: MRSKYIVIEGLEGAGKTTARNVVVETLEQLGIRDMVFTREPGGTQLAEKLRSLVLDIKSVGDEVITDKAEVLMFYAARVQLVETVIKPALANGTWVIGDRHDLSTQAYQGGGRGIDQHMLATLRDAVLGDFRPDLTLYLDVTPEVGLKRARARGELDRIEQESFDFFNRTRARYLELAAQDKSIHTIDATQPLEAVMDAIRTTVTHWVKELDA
Briefly: split reporter.

Assay [2] concerns the target WT DHFR (purified protein) (E. coli) (UniProt P0ABQ4). Briefly: Raman spectroscopy.
The target in the next assay is T4, FolK (purified protein) (E. coli, UniProt P26281 1-159).
T4 sequence: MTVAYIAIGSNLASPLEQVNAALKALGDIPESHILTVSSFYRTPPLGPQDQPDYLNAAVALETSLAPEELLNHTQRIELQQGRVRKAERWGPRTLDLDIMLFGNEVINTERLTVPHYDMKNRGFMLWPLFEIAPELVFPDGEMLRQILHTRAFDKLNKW
Briefly: Raman spectroscopy.

Assay [3] has as its target T5, PurT (E. coli) (UniProt P33221).
T5 sequence: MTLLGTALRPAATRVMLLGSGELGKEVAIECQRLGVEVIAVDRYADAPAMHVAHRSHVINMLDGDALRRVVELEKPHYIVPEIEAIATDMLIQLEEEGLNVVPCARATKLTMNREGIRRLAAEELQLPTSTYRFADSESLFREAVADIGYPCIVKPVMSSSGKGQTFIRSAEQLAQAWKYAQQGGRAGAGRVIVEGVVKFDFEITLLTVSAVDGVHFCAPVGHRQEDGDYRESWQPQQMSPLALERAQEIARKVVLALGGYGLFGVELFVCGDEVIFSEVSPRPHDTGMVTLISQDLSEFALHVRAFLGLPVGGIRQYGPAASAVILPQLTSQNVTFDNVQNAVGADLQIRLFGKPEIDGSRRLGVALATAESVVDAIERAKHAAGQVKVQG
Briefly: split reporter.

Another assay concerns the target T6, PurM (E. coli) (UniProt P08178).
T6 sequence: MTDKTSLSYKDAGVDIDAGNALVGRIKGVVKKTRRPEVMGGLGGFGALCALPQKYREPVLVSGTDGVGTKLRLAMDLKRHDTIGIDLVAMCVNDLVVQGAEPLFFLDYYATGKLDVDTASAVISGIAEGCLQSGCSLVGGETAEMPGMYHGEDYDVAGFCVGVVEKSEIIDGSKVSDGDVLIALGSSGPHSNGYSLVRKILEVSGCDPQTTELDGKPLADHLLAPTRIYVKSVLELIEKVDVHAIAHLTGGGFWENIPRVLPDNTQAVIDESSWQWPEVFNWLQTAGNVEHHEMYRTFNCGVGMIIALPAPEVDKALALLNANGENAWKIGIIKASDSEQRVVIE
Kind of assay: split reporter.

Assay [4] addresses T5, PurT (E. coli). Briefly: split reporter. The source holds these as a separate data set.
The target in another assay is T7, PurD (E. coli) (UniProt P15640).
T7 sequence: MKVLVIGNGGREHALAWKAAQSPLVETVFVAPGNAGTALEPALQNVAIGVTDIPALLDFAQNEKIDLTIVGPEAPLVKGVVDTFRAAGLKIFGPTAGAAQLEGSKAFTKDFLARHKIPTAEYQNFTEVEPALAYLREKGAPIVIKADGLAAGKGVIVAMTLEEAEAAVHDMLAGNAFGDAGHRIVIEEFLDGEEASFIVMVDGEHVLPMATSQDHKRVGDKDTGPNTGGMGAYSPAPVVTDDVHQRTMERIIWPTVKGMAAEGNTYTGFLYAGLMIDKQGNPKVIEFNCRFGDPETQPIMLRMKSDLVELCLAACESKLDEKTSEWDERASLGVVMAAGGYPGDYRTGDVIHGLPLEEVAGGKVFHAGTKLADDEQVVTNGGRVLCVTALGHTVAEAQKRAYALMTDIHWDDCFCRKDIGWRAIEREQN
Briefly: split reporter.

Another assay has as its target T8, PabC (E. coli) (UniProt P28305).
T8 sequence: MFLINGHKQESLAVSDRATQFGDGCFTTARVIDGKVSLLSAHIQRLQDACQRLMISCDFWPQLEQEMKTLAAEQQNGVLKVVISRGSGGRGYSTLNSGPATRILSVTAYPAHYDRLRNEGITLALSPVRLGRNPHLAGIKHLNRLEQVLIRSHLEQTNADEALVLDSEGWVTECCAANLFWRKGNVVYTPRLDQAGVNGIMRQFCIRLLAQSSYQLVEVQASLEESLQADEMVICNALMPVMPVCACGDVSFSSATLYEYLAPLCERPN
Kind of assay: split reporter.

Like-named read-outs stand apart in the source and are kept apart here. No constants are given. Whether binding was seen depends on the method and setting. For some of these results: Binding seen in cells or lysates may run through a third protein. Some entries that bind do so weakly or less than the wild type.

For “GlyA (from UniProt P0A825 1-417) (enzyme)”, the binding result in the assay with GlyA (E. coli) and with MetF (E. coli) was “binds” in each case.
As to “Dihydrofolate Reductase (DHFR) (from UniProt P0ABQ4) (enzyme)”, the binding entry (with GlyA (E. coli); with MetF (E. coli); with NudB (E. coli); in the assay with PurK (E. coli); in assay [1]) was “binds” throughout.
In the case of “ADK (purified control protein) (from UniProt P69441 1-214) (enzyme)”, the binding result (in assay [2]; with FolK (purified protein)) was “no binding (tested: 15 µM)” each time.

B1: PabC (enzyme, UniProt P28305 1-269)
chain: MFLINGHKQESLAVSDRATQFGDGCFTTARVIDGKVSLLSAHIQRLQDACQRLMISCDFWPQLEQEMKTLAAEQQNGVLKVVISRGSGGRGYSTLNSGPATRILSVTAYPAHYDRLRNEGITLALSPVRLGRNPHLAGIKHLNRLEQVLIRSHLEQTNADEALVLDSEGWVTECCAANLFWRKGNVVYTPRLDQAGVNGIMRQFCIRLLAQSSYQLVEVQASLEESLQADEMVICNALMPVMPVCACGDVSFSSATLYEYLAPLCERPN
As for B1, the binding result with NudB (E. coli) is listed as “no binding”.

B2: PurM (enzyme, UniProt P08178 1-345)
chain: MTDKTSLSYKDAGVDIDAGNALVGRIKGVVKKTRRPEVMGGLGGFGALCALPQKYREPVLVSGTDGVGTKLRLAMDLKRHDTIGIDLVAMCVNDLVVQGAEPLFFLDYYATGKLDVDTASAVISGIAEGCLQSGCSLVGGETAEMPGMYHGEDYDVAGFCVGVVEKSEIIDGSKVSDGDVLIALGSSGPHSNGYSLVRKILEVSGCDPQTTELDGKPLADHLLAPTRIYVKSVLELIEKVDVHAIAHLTGGGFWENIPRVLPDNTQAVIDESSWQWPEVFNWLQTAGNVEHHEMYRTFNCGVGMIIALPAPEVDKALALLNANGENAWKIGIIKASDSEQRVVIE
As for B2, in the assay with PurT (E. coli) [3], the binding result was “binds”.

B3: PurD (enzyme, UniProt P15640 1-429)
chain: MKVLVIGNGGREHALAWKAAQSPLVETVFVAPGNAGTALEPALQNVAIGVTDIPALLDFAQNEKIDLTIVGPEAPLVKGVVDTFRAAGLKIFGPTAGAAQLEGSKAFTKDFLARHKIPTAEYQNFTEVEPALAYLREKGAPIVIKADGLAAGKGVIVAMTLEEAEAAVHDMLAGNAFGDAGHRIVIEEFLDGEEASFIVMVDGEHVLPMATSQDHKRVGDKDTGPNTGGMGAYSPAPVVTDDVHQRTMERIIWPTVKGMAAEGNTYTGFLYAGLMIDKQGNPKVIEFNCRFGDPETQPIMLRMKSDLVELCLAACESKLDEKTSEWDERASLGVVMAAGGYPGDYRTGDVIHGLPLEEVAGGKVFHAGTKLADDEQVVTNGGRVLCVTALGHTVAEAQKRAYALMTDIHWDDCFCRKDIGWRAIEREQN
For the molecule B3, the binding entry with PurM (E. coli), with PurT (E. coli) [3] and with PurT (E. coli) [4] was “binds” throughout.

B4: FolK (enzyme, UniProt P26281 1-159)
chain: MTVAYIAIGSNLASPLEQVNAALKALGDIPESHILTVSSFYRTPPLGPQDQPDYLNAAVALETSLAPEELLNHTQRIELQQGRVRKAERWGPRTLDLDIMLFGNEVINTERLTVPHYDMKNRGFMLWPLFEIAPELVFPDGEMLRQILHTRAFDKLNKW
In the case of B4, the binding result in the assay with GlyA (E. coli) and with MetF (E. coli) was “binds” each time.

B5: PurK (enzyme, UniProt P09029 1-355)
chain: MKQVCVLGNGQLGRMLRQAGEPLGIAVWPVGLDAEPAAVPFQQSVITAEIERWPETALTRELARHPAFVNRDVFPIIADRLTQKQLFDKLHLPTAPWQLLAERSEWPAVFDRLGELAIVKRRTGGYDGRGQWRLRANETEQLPAECYGECIVEQGINFSGEVSLVGARGFDGSTVFYPLTHNLHQDGILRTSVAFPQANAQQQAQAEEMLSAIMQELGYVGVMAMECFVTPQGLLINELAPRVHNSGHWTQNGASISQFELHLRAITDLPLPQPVVNNPSVMINLIGSDVNYDWLKLPLVHLHWYDKEVRPGRKVGHLNLTDSDTSRLTATLEALIPLLPPEYASGVIWAQSKFG
With B5, the binding entry with PurD (E. coli), with PurK (E. coli), with PurM (E. coli) and with PurT (E. coli) [3] was “binds” in each case.

B6: PabA (enzyme, UniProt P00903 1-187)
chain: MILLIDNYDSFTWNLYQYFCELGADVLVKRNDALTLADIDALKPQKIVISPGPCTPDEAGISLDVIRHYAGRLPILGVCLGHQAMAQAFGGKVVRAAKVMHGKTSPITHNGEGVFRGLANPLTVTRYHSLVVEPDSLPACFDVTAWSETREIMGIRHRQWDLEGVQFHPESILSEQGHQLLANFLHR
For B6, the binding result with NudB (E. coli) and with PabC (E. coli) was “no binding” each time.
